PMC4585786
Results are given in words; binding and its absence hold for the method and conditions named. In cells and extracts the contact can be indirect. A result given as binding can be weak or reduced; the word gives no strength.

target: T1, IKKβ (UniProt O14920); assay: co-IP
T1 sequence: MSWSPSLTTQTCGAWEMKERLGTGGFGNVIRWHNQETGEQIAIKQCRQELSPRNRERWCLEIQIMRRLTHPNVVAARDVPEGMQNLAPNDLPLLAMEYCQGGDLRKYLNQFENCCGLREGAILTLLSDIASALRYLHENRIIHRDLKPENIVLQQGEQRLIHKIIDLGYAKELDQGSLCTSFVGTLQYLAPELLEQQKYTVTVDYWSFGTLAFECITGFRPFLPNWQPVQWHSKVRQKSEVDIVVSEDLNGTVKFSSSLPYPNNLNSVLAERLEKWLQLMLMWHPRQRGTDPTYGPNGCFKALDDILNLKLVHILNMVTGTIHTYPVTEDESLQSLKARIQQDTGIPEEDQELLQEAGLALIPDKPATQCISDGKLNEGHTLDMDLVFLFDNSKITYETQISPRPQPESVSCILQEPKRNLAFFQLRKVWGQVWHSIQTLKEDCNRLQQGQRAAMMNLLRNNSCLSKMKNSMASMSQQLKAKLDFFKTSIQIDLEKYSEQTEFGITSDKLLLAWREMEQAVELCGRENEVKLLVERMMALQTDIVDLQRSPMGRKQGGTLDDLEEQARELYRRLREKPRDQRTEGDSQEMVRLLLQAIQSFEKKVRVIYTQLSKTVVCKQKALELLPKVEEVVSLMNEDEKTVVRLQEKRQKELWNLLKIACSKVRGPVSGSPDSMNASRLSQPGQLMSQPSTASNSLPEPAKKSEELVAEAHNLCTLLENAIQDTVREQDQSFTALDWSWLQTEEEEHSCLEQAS

Row | Substance | binding
1 | EV71 2C 1-104aa (Enterovirus 71) (domain or fragment) | binds
2 | EV71 2C 126-263aa (Enterovirus 71) (domain or fragment) | no binding
3 | EV71 2C 105-121aa (Enterovirus 71) (domain or fragment) | binds
4 | EV71 2C 105-125aa (Enterovirus 71) (domain or fragment) | binds
5 | enterovirus 68 2C 105-125aa (domain or fragment) | binds
